Test results published in US20200390870A1 (MINERVA BIOTECHNOLOGIES, published 2020).
Results are given in words; binding and its absence hold for the method and conditions named. A result given as binding can be weak or reduced; the word gives no strength. Values belong to the binder of their own block, whether it stands above or below them.

How the values were obtained:
[1] = target: MUC1* transfected into cells (MUC1*45) (Homo sapiens (Human)); assay: cell binding assay: HEK293 cells expressing the CAR (GFP) and K562-MUC1* cells (CMTMR), wash steps, photographs
[2] = target: MUC1* transfected into cells (MUC1*45) (Homo sapiens (Human)); assay: FACS on HCT-116 cells
[3] = target: MUC1* transfected into cells (MUC1*45) (Homo sapiens (Human)); assay: flow cytometry on HCT-116 cells transfected with MUC1* (clone #10) against empty vector (clone #8)
[4] = target: MUC1* transfected into cells (MUC1*45) (Homo sapiens (Human)); assay: FACS

binding [1]: binds
B1: CAR57: huC2-IgD-CD8-41BB-3z (protein)
chain: EVQLVESGGGLVKPGGSLRLSCAASGFTFSGYAMSWVRQAPGKGLEWVSTISSGGTYIYYPDSVKGRFTISRDNAKNSLYLQMNSLRAEDTAVYYCARLGGDNYYEYFDVWGKGTTVTVSSGGGGSGGGGSGGGGSDIVLTQSPASLAVSPGQRATITCRASKSVSTSGYSYMHWYQQKPGQPPKLLIYLASNLESGVPARFSGSGSGTDFTLTINPVEANDTANYYCQHSRELPFTFGGGTKVEIKRTESPKAQASSVPTAQPQAEGSLAKATTAPATTRNTGRGGEEKKKEKEKEEQEERETKTPIYIWAPLAGTCGVLLLSLVITLYCKRGRKKLLYIFKQPFMRPVQTTQEEDGCSCRFPEEEEGGCELRVKFSRSADAPAYKQGQNQLYNELNLGRREEYDVLDKRRGRDPEMGGKPRRKNPQEGLYNELQKDKMAEAYSEIGMKGERRRGKGHDGLYQGLSTATKDTYDALHMQALPPR

binding [2]: binds | binding [3]: binds
B2: mouse monoclonal antibody MN-E6 (antibody, V domains shown)
VH: EVKVVESGGDLVKPGGSLKLSCVVSGFTFSRYGMSWVRQTPGKRLEWVATISGGGTYIYYPDSVKGRFTISRDNAKNTLYLQMSSLKSEDTAMYHCTRDNYGRNYDYGMDYWGQGTSVTVSS
VL: QIVLTQSPAIMSASPGEEVTLTCSATSSVSYIHWFQQRPGTSPKLWIYSTSNLASGVPVRFSGSGYGTSYSLTISRMEAEDAATYYCQQRSSSPFTFGSGTKLEIK
notes: mouse monoclonal; also called Min-E6

binding [4]: binds
B3: mouse monoclonal antibody MN-C2 (antibody, V domains shown)
VH: EVQLEESGGGLVKPGGSLKLSCAASGFTFSGYAMSWVRQTPEKRLEWVATISSGGTYIYYPDSVKGRFTISRDNAKNTLYLQMSSLRSEDTAMYYCARLGGDNYYEYFDVWGAGTTVTVSS
VL: DIVITQSTASLGVSLGQRATISCRASKSVSTSGYSYMHWYQQRPGQPPKLLIYLASNLESGVPARFSGSGSGTDFTLNIHPVEEEDAATYYCQHSRELPFTFGGGTKLEIKR
notes: mouse monoclonal; also called Min-C2
